{"source": "PubChem BioAssay AID1224831 (NIAID, 2016)", "screen": "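Retesting screen hits on the TLR4-driven TNF response with six separate siRNAs each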 (follow-up of hits)", "system": "human THP-1 B5 monocytic leukaemia cells carrying a TNF promoter luciferase reporter, made macrophage-like with PMA", "reagent": "single siRNA against human genes, 50 nM", "duration": "about 68 h of knock-down, then 4 h LPS", "treatment": "LPS (Salmonella minnesota, TLR-grade) at 10 ng/ml for 4 h; PMA 5 ng/ml present during knock-down", "measured": "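Firefly to renilla luciferase ratio of a TNF promoter reporter after 4 h LPS, scaled to plate median, turned into robust z-score, averaged over replicates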", "reading the numbers": "TNF reporter z-score: higher = stronger LPS-induced TNF reporter signal; z-score, median over gene's siRNAs: higher = stronger TNF reporter signal across the gene's siRNAs", "active means": "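Two-sided call: reduced or raised TNF reporter signal counts as active once mean z reaches about -1 or below, or about 1.5 or above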", "calls": "active = changed TNF reporter (either direction); inactive = little change", "note": "Here is one part, drawn at random, of about 3,500 reagents tested. Of all reagents, 731 (21%) got an active call. 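Active means either lowered or raised reporter signal; the gene-median score did not drive the per-siRNA calls.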 A number with no mark means an inactive call."}
{"target gene": "FAM131B (GeneID 9715)", "PubChem SID": "SID315483360", "TNF reporter z-score, replicate mean": 1.09, "z-score, median over gene's siRNAs": 0.105}
{"target gene": "FAM131B (GeneID 9715)", "PubChem SID": "SID315483361", "TNF reporter z-score, replicate mean": 0.69, "z-score, median over gene's siRNAs": 0.105}
{"target gene": "FAM131B (GeneID 9715)", "PubChem SID": "SID315483362", "TNF reporter z-score, replicate mean": -0.43, "z-score, median over gene's siRNAs": 0.105}
{"target gene": "FAM131B (GeneID 9715)", "PubChem SID": "SID315483363", "TNF reporter z-score, replicate mean": 0.4, "z-score, median over gene's siRNAs": 0.105}
{"target gene": "FAM131B (GeneID 9715)", "PubChem SID": "SID315483364", "TNF reporter z-score, replicate mean": -0.99, "z-score, median over gene's siRNAs": 0.105}
{"target gene": "FAM131B (GeneID 9715)", "PubChem SID": "SID315483365", "TNF reporter z-score, replicate mean": -0.19, "z-score, median over gene's siRNAs": 0.105}
{"target gene": "MAN1B1 (GeneID 11253)", "PubChem SID": "SID315483606", "TNF reporter z-score, replicate mean": "-1.08 (active)", "z-score, median over gene's siRNAs": 0.365}
{"target gene": "MAN1B1 (GeneID 11253)", "PubChem SID": "SID315483607", "TNF reporter z-score, replicate mean": "9.49 (active)", "z-score, median over gene's siRNAs": 0.365}
{"target gene": "MAN1B1 (GeneID 11253)", "PubChem SID": "SID315483608", "TNF reporter z-score, replicate mean": 0.77, "z-score, median over gene's siRNAs": 0.365}
{"target gene": "MAN1B1 (GeneID 11253)", "PubChem SID": "SID315483609", "TNF reporter z-score, replicate mean": -0.12, "z-score, median over gene's siRNAs": 0.365}
{"target gene": "MAN1B1 (GeneID 11253)", "PubChem SID": "SID315483610", "TNF reporter z-score, replicate mean": -0.04, "z-score, median over gene's siRNAs": 0.365}
{"target gene": "MAN1B1 (GeneID 11253)", "PubChem SID": "SID315483611", "TNF reporter z-score, replicate mean": 0.81, "z-score, median over gene's siRNAs": 0.365}
{"target gene": "LINC02914 (GeneID 283598)", "PubChem SID": "SID315488820", "TNF reporter z-score, replicate mean": 0.8, "z-score, median over gene's siRNAs": 0.155}
{"target gene": "LINC02914 (GeneID 283598)", "PubChem SID": "SID315488821", "TNF reporter z-score, replicate mean": 0.47, "z-score, median over gene's siRNAs": 0.155}
{"target gene": "LINC02914 (GeneID 283598)", "PubChem SID": "SID315488822", "TNF reporter z-score, replicate mean": 0.99, "z-score, median over gene's siRNAs": 0.155}
{"target gene": "LINC02914 (GeneID 283598)", "PubChem SID": "SID315488823", "TNF reporter z-score, replicate mean": -0.16, "z-score, median over gene's siRNAs": 0.155}
{"target gene": "LINC02914 (GeneID 283598)", "PubChem SID": "SID315488824", "TNF reporter z-score, replicate mean": -0.19, "z-score, median over gene's siRNAs": 0.155}
{"target gene": "LINC02914 (GeneID 283598)", "PubChem SID": "SID315488825", "TNF reporter z-score, replicate mean": -0.26, "z-score, median over gene's siRNAs": 0.155}

Laid out differently: entries from further up.
target gene	PubChem SID	TNF reporter z-score, replicate mean	z-score, median over gene's siRNAs
MAN1B1 (GeneID 11253)	SID315483610	-0.04	0.365
MAN1B1 (GeneID 11253)	SID315483611	0.81	0.365
